Measurements as given in the supplement of paper PMC4604168 (melanoma cell lines).
This is one part of the list. Repeats are few or missing, and single values can be far off.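 Cells were imaged in 1,536-well plates, and nuclei stained with an antibody against cleaved PARP were counted against all DNA-stained nuclei to give the apoptosis fraction. Screening doses were chosen to leave most cells alive, and resting and induced cleaved-PARP levels differ strongly between cell lines.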

Columns and labels:
Assay in all cases: cleaved PARP positive nuclei fraction relative to DMSO control; melanoma cells; higher = more apoptosis
Conditions in all cases: library dose: low library concentration; 72 h
CBRC034 = tested on: CBRC034 (line from a melanoma biopsy)
COLO792 = tested on: COLO792
COLO800 = tested on: COLO800
COLO829 = tested on: COLO829
G361 = tested on: G361
IPC-298 = tested on: IPC-298
IST-MEL1 = tested on: IST-MEL1
LB2518-MEL = tested on: LB2518-MEL
LOXIMVI = tested on: LOXIMVI
MEL-HO = tested on: MEL-HO
MZ2-MEL = tested on: MZ2-MEL
MeWo = tested on: MeWo
RPMI7951 = tested on: RPMI7951
RVH-421 = tested on: RVH-421
SkMel28 = tested on: SkMel28
SkMel2 = tested on: SkMel2
SkMel30 = tested on: SkMel30
UACC62 = tested on: UACC62

| Structure (SMILES) | cleaved PARP positive nuclei fraction (CBRC034) [%] | cleaved PARP positive nuclei fraction (COLO792) [%] | cleaved PARP positive nuclei fraction (COLO800) [%] | cleaved PARP positive nuclei fraction (COLO829) [%] | cleaved PARP positive nuclei fraction (G361) [%] | cleaved PARP positive nuclei fraction (IPC-298) [%] | cleaved PARP positive nuclei fraction (IST-MEL1) [%] | cleaved PARP positive nuclei fraction (LB2518-MEL) [%] | cleaved PARP positive nuclei fraction (LOXIMVI) [%] | cleaved PARP positive nuclei fraction (MEL-HO) [%] | cleaved PARP positive nuclei fraction (MZ2-MEL) [%] | cleaved PARP positive nuclei fraction (MeWo) [%] | cleaved PARP positive nuclei fraction (RPMI7951) [%] | cleaved PARP positive nuclei fraction (RVH-421) [%] | cleaved PARP positive nuclei fraction (SkMel28) [%] | cleaved PARP positive nuclei fraction (SkMel2) [%] | cleaved PARP positive nuclei fraction (SkMel30) [%] | cleaved PARP positive nuclei fraction (UACC62) [%] |
| --- | --- | --- | --- | --- | --- | --- | --- | --- | --- | --- | --- | --- | --- | --- | --- | --- | --- | --- |
| COc1cc([C@@H]2c3cc4c(cc3[C@@H](O[C@@H]3O[C@@H]5CO[C@@H](C)O[C@H]5[C@H](O)[C@H]3O)[C@H]3COC(=O)[C@H]23)OCO4)cc(OC)c1O [etoposide] + C[C@]1(c2nc3c(C(N)=O)cccc3[nH]2)CCCN1 [Veliparib] (first compound 0.02 µM, partner dose 1.4 µM) | 67.3 | 72.9 | 74.6 | 124 | 122 | 91.9 | 69.3 | 48 | 130 | 74.5 | 70.2 | 79 | 75.6 | 31 | 74.3 | 194 | 60.9 | 72.6 |
| CCCCCCCCCCCCCCCCCCOP(=O)([O-])OC1CC[N+](C)(C)CC1 [Perifosine] + C[C@@H](Oc1cc(-c2cnn(C3CCNCC3)c2)cnc1N)c1c(Cl)ccc(F)c1Cl [Crizotinib] (first compound 0.4 µM, partner dose 0.2 µM) | 80.9 | 160 | 131 | 112 | 33.3 | 237 | 128 | 49.4 | 166 | 90 | 102 | 27.2 | 51.5 | 212 | 194 | 176 | 68.4 | 202 |
| O=C(/C=C/c1cccnc1)NCCCCC1CCN(C(=O)c2ccccc2)CC1 + CCCCCCCCc1ccc(CCC(N)(CO)CO)cc1 [fingolimod] (first compound 0.01 µM, partner dose 2 µM) | 1460 | 616 | 299 | 358 | 4120 | 314 | 45.7 | 132 | 240 | 132 | 280 | 103 | 238 | 54.8 | 106 | 894 | 80.3 | 74.4 |
| CCCCCCCCCCCCCCCCCCOP(=O)([O-])OC1CC[N+](C)(C)CC1 [Perifosine] + Cn1nnc2c(C(N)=O)ncn2c1=O [temozolomide] (first compound 0.4 µM, partner dose 2 µM) | 32.1 | 58.8 | 104 | 119 | 57.3 | 88.9 | 130 | 49.3 | 219 | 81 | 93.7 | 50.8 | 53.6 | 57 | 199 | 50.1 | 53.2 | 165 |
| Cc1ccc(Nc2nccc(N(C)c3ccc4c(C)n(C)nc4c3)n2)cc1S(N)(=O)=O [Pazopanib] + C[C@]1(c2nc3c(C(N)=O)cccc3[nH]2)CCCN1 [Veliparib] (first compound 0.4 µM, partner dose 1.4 µM) | 81.8 | 58.2 | 78.1 | 95.3 | 277 | 54.3 | 66.5 | 120 | 86.7 | 79.2 | 54 | 134 | 63.2 | 163 | 102 | 26.3 | 97.7 | 222 |
| Cc1cn(-c2cc(NC(=O)c3ccc(C)c(Nc4nccc(-c5cccnc5)n4)c3)cc(C(F)(F)F)c2)cn1 [nilotinib] + C[C@]1(c2nc3c(C(N)=O)cccc3[nH]2)CCCN1 [Veliparib] (first compound 0.2 µM, partner dose 1.4 µM) | 51.1 | 74 | 91.4 | 90.3 | 45.7 | 89.4 | 126 | 60.4 | 161 | 102 | 56.4 | 91.8 | 56.5 | 100 | 83.8 | 28.1 | 94.1 | 112 |
| O=c1[nH]nc(Sc2ncc([N+](=O)[O-])s2)n1-c1ccc2c(c1)OCCO2 + CNC(=O)c1cc(Oc2ccc(NC(=O)Nc3ccc(Cl)c(C(F)(F)F)c3)cc2)ccn1 [sorafenib] (first compound 0.2 µM, partner dose 0.4 µM) | 58.2 | 89.9 | 29.5 | 60.5 | 78.2 | 46.1 | 122 | 102 | 93 | 58.9 | 72 | 57.7 | 108 | 44.3 | 38.6 | 93.2 | 67.2 | 68.3 |
| Cc1cn(-c2cc(NC(=O)c3ccc(C)c(Nc4nccc(-c5cccnc5)n4)c3)cc(C(F)(F)F)c2)cn1 [nilotinib] + Cn1cnc2c(F)c(Nc3ccc(Br)cc3Cl)c(C(=O)NOCCO)cc21 [selumetinib] (first compound 0.2 µM, partner dose 0.015 µM) | 69.2 | 67.9 | 115 | 70.5 | 136 | 91.2 | 56.5 | 62.4 | 39.6 | 50.2 | 94.6 | 66.7 | 68.6 | 52.6 | 87.1 | 104 | 41.6 | 55.8 |
| COc1cc([C@@H]2c3cc4c(cc3[C@@H](O[C@@H]3O[C@@H]5CO[C@@H](C)O[C@H]5[C@H](O)[C@H]3O)[C@H]3COC(=O)[C@H]23)OCO4)cc(OC)c1O [etoposide] + Cc1nc(Nc2ncc(C(=O)Nc3c(C)cccc3Cl)s2)cc(N2CCN(CCO)CC2)n1 [dasatanib] (first compound 0.02 µM, partner dose 0.004 µM) | 345 | 131 | 202 | 147 | 130 | 172 | 35.4 | 131 | 76 | 87.3 | 105 | 105 | 116 | 283 | 87.2 | 130 | 123 | 269 |
| O=C(/C=C/c1cccnc1)NCCCCC1CCN(C(=O)c2ccccc2)CC1 + C[C@]1(O)C[C@@H](c2nc(-c3ccc4ccc(-c5ccccc5)nc4c3)c3c(N)nccn32)C1 [OSI906] (first compound 0.01 µM, partner dose 0.4 µM) | 520 | 280 | 215 | 222 | 2340 | 403 | 89.8 | 251 | 151 | 415 | 730 | 470 | 127 | 193 | 171 | 739 | 145 | 227 |
| CC[C@]1(O)C[C@H]2CN(CCc3c([nH]c4ccccc34)[C@@](C(=O)OC)(c3cc4c(cc3OC)N(C=O)[C@H]3[C@@](O)(C(=O)OC)[C@H](OC(C)=O)[C@]5(CC)C=CCN6CC[C@]43[C@@H]65)C2)C1 [vincristine] + CS(=O)(=O)c1ccc(C(=O)Nc2ccc(Cl)c(-c3ccccn3)c2)c(Cl)c1 [vismodegib] (first compound 0.0001 µM, partner dose 1 µM) | 36.6 | 176 | 112 | 110 | 148 | 29.6 | 65.7 | 63.4 | 140 | 50.7 | 52.8 | 147 | 134 | 112 | 122 | 124 | 93.9 | 591 |
| Cc1cn(-c2cc(NC(=O)c3ccc(C)c(Nc4nccc(-c5cccnc5)n4)c3)cc(C(F)(F)F)c2)cn1 [nilotinib] + C#Cc1cccc(Nc2ncnc3cc(OCCOC)c(OCCOC)cc23)c1 [erlotinib] (first compound 0.2 µM, partner dose 0.8 µM) | 44.3 | 82.3 | 143 | 390 | 115 | 92.4 | 31.4 | 95.1 | 47.9 | 128 | 82.2 | 84 | 311 | 26.3 | 71.3 | 98.5 | 102 | 445 |
| COc1cc([C@@H]2c3cc4c(cc3[C@@H](O[C@@H]3O[C@@H]5CO[C@@H](C)O[C@H]5[C@H](O)[C@H]3O)[C@H]3COC(=O)[C@H]23)OCO4)cc(OC)c1O [etoposide] + Cn1c(=O)n(-c2ccc(C(C)(C)C#N)cc2)c2c3cc(-c4cnc5ccccc5c4)ccc3ncc21 [NVP-BEZ235] (first compound 0.02 µM, partner dose 0.004 µM) | 38.1 | 127 | 23.1 | 86.1 | 187 | 148 | 269 | 137 | 167 | 121 | 152 | 130 | 240 | 76.5 | 82.5 | 112 | 67.4 | 130 |
| COc1cc([C@@H]2c3cc4c(cc3[C@@H](O[C@@H]3O[C@@H]5CO[C@@H](C)O[C@H]5[C@H](O)[C@H]3O)[C@H]3COC(=O)[C@H]23)OCO4)cc(OC)c1O [etoposide] + NC(=O)c1ccc(N(C(N)=O)c2c(F)cccc2F)nc1-c1ccc(F)cc1F [VX702] (first compound 0.02 µM, partner dose 0.4 µM) | 49 | 95.1 | 119 | 92.5 | 112 | 45.6 | 61.3 | 104 | 99.2 | 69.1 | 33.5 | 167 | 98.3 | 65.5 | 77 | 135 | 63.3 | 127 |
| O=C(Nc1cc(C(F)(F)F)cc(C(F)(F)F)c1)c1cc(Cl)ccc1O + COc1ccc(C2=N[C@@H](c3ccc(Cl)cc3)[C@@H](c3ccc(Cl)cc3)N2C(=O)N2CCNC(=O)C2)c(OC(C)C)c1 [Nutlin-3] (first compound 0.016 µM, partner dose 0.1 µM) | 63.8 | 89.3 | 135 | 135 | 56.4 | 48.2 | 125 | 209 | 96.5 | 84.6 | 98.1 | 89.1 | 38.5 | 125 | 253 | 101 | 63.2 | 94.1 |
| Cc1cn(-c2cc(NC(=O)c3ccc(C)c(Nc4nccc(-c5cccnc5)n4)c3)cc(C(F)(F)F)c2)cn1 [nilotinib] + C[C@]1(O)C[C@@H](c2nc(-c3ccc4ccc(-c5ccccc5)nc4c3)c3c(N)nccn32)C1 [OSI906] (first compound 0.2 µM, partner dose 0.4 µM) | 68.1 | 41.2 | 103 | 18.2 | 68.5 | 49.5 | 48.3 | 104 | 86 | 80.4 | 78.8 | 85.5 | 54.7 | 71.7 | 95.2 | 160 | 112 | 47.7 |

Just cleaved PARP positive nuclei fraction (UACC62) [%] and cleaved PARP positive nuclei fraction (SkMel30) [%], for some of the entries so far:
Structure (SMILES)	cleaved PARP positive nuclei fraction (UACC62) [%]	cleaved PARP positive nuclei fraction (SkMel30) [%]
COc1cc([C@@H]2c3cc4c(cc3[C@@H](O[C@@H]3O[C@@H]5CO[C@@H](C)O[C@H]5[C@H](O)[C@H]3O)[C@H]3COC(=O)[C@H]23)OCO4)cc(OC)c1O [etoposide] + Cn1c(=O)n(-c2ccc(C(C)(C)C#N)cc2)c2c3cc(-c4cnc5ccccc5c4)ccc3ncc21 [NVP-BEZ235] (first compound 0.02 µM, partner dose 0.004 µM)	130	67.4
COc1cc([C@@H]2c3cc4c(cc3[C@@H](O[C@@H]3O[C@@H]5CO[C@@H](C)O[C@H]5[C@H](O)[C@H]3O)[C@H]3COC(=O)[C@H]23)OCO4)cc(OC)c1O [etoposide] + NC(=O)c1ccc(N(C(N)=O)c2c(F)cccc2F)nc1-c1ccc(F)cc1F [VX702] (first compound 0.02 µM, partner dose 0.4 µM)	127	63.3
